Results deposited as PubChem BioAssay AID1259254 (NCATS, 2017)

Purpose: 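Gene knock-downs that lead to re-replication, shown by excess G2 DNA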 (primary screen)
Cells: human HCT116 colorectal cancer cells
Knock-down reagent: single siRNA against human genes
Timing: 3 days
Measured: 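Imaged Hoechst DNA stain sorts each cell into a cycle phase by DNA amount; per plate, G2 fraction set to 0% for non-targeting and 100% for GMNN siRNA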
Scale: G2 robust z-score: higher = more G2 cells, more excess DNA replication
Active means: 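Active siRNAs have a G2 robust z of 5 or more median absolute deviations over the median, which in these data means about 38% or higher of GMNN control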
Here is an unselected part of about 59,000 reagents tested. About 1,550 of them (2.6%) were called active. 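G2 share is only a proxy for re-replication; each gene was hit by three separate siRNAs, and active genes were retested.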 Reagents against one gene are numbered here. Not all columns of the deposit are shown. The record does not give: the amount of reagent.

G2 robust z-score | Outcome | Target gene | reagent
-0.542 | inactive | VSIG10L (GeneID 147645) | 1
-0.32 | inactive | VSIG10L (GeneID 147645) | 2
-1.05 | inactive | VSIG10L (GeneID 147645) | 3
2.38 | inactive | LEPROTL1 (GeneID 23484) | 1
3.03 | inactive | LEPROTL1 (GeneID 23484) | 2
0.383 | inactive | LEPROTL1 (GeneID 23484) | 3
-0.837 | inactive | SLC25A17 (GeneID 10478) | 1
-0.799 | inactive | SLC25A17 (GeneID 10478) | 2
-1.23 | inactive | SLC25A17 (GeneID 10478) | 3
5.39 | active | RPL15P11 (GeneID 402694) | 1
-0.548 | inactive | RPL15P11 (GeneID 402694) | 2
2.83 | inactive | RPL15P11 (GeneID 402694) | 3
3.63 | inactive | ACAD8 (GeneID 27034) | 1
0.175 | inactive | ACAD8 (GeneID 27034) | 2
-0.492 | inactive | ACAD8 (GeneID 27034) | 3
0.246 | inactive | SLC39A11 (GeneID 201266) | 1
-0.158 | inactive | SLC39A11 (GeneID 201266) | 2
-0.139 | inactive | SLC39A11 (GeneID 201266) | 3
-1.06 | inactive | NXF3 (GeneID 56000) | 1
-0.89 | inactive | NXF3 (GeneID 56000) | 2
2.82 | inactive | NXF3 (GeneID 56000) | 3
0.309 | inactive | ZNF350 (GeneID 59348) | 1
-0.614 | inactive | ZNF350 (GeneID 59348) | 2
0.32 | inactive | ZNF350 (GeneID 59348) | 3
1.36 | inactive | RTCA (GeneID 8634) | 1
-0.686 | inactive | RTCA (GeneID 8634) | 2
-0.488 | inactive | RTCA (GeneID 8634) | 3
-0.496 | inactive | CORIN (GeneID 10699) | 1
0.527 | inactive | CORIN (GeneID 10699) | 2
-1.16 | inactive | CORIN (GeneID 10699) | 3
0.526 | inactive | BMX (GeneID 660) | 1
-1.12 | inactive | BMX (GeneID 660) | 2
-0.219 | inactive | BMX (GeneID 660) | 3
-1.03 | inactive | SULT1C2 (GeneID 6819) | 1
5.53 | active | SULT1C2 (GeneID 6819) | 2
-0.751 | inactive | SULT1C2 (GeneID 6819) | 3
0.928 | inactive | SYNDIG1 (GeneID 79953) | 1
-0.118 | inactive | SYNDIG1 (GeneID 79953) | 2
0.875 | inactive | SYNDIG1 (GeneID 79953) | 3
0.909 | inactive | KCNB2 (GeneID 9312) | 1
3.85 | inactive | KCNB2 (GeneID 9312) | 2
-0.77 | inactive | KCNB2 (GeneID 9312) | 3
1.14 | inactive | CEBPG (GeneID 1054) | 1
3.11 | inactive | CEBPG (GeneID 1054) | 2
0.135 | inactive | CEBPG (GeneID 1054) | 3

The list goes on; the last 4 above are carried over.
G2 robust z-score | Outcome | Target gene | reagent
-0.77 | inactive | KCNB2 (GeneID 9312) | 3
1.14 | inactive | CEBPG (GeneID 1054) | 1
3.11 | inactive | CEBPG (GeneID 1054) | 2
0.135 | inactive | CEBPG (GeneID 1054) | 3
-0.409 | inactive | RAB7B (GeneID 338382) | 1
-1.11 | inactive | RAB7B (GeneID 338382) | 2
-0.713 | inactive | RAB7B (GeneID 338382) | 3
0.00748 | inactive | STPG3 (GeneID 441476) | 1
1.84 | inactive | STPG3 (GeneID 441476) | 2
1.02 | inactive | STPG3 (GeneID 441476) | 3
-0.885 | inactive | TM9SF1 (GeneID 10548) | 1
0.42 | inactive | TM9SF1 (GeneID 10548) | 2
-1.23 | inactive | TM9SF1 (GeneID 10548) | 3
0.0499 | inactive | MMP8 (GeneID 4317) | 1
0.00569 | inactive | MMP8 (GeneID 4317) | 2
0.456 | inactive | MMP8 (GeneID 4317) | 3
1.08 | inactive | LINC01896 (GeneID 645321) | 1
3.62 | inactive | LINC01896 (GeneID 645321) | 2
-0.152 | inactive | LINC01896 (GeneID 645321) | 3
3.57 | inactive | PSMB5 (GeneID 5693) | 1
8.02 | active | PSMB5 (GeneID 5693) | 2
3.58 | inactive | PSMB5 (GeneID 5693) | 3
2.79 | inactive | TRPV3 (GeneID 162514) | 1
1.41 | inactive | TRPV3 (GeneID 162514) | 2
0.0407 | inactive | TRPV3 (GeneID 162514) | 3
2.9 | inactive | LOC440895 (GeneID 440895) | 1
-0.323 | inactive | LOC440895 (GeneID 440895) | 2
0.107 | inactive | LOC440895 (GeneID 440895) | 3
